Here are results for 40 compounds from PubChem BioAssay AID2685 (National Center for Advancing Translational Sciences (NCATS), 2010).

A short description of this experiment: qHTS Assay for Lipid Storage Modulators in Drosophila S3 Cells.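 As to cell number change: cells counted by Cell Tracker Red CMTPX staining in the red channel.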 The settings on record: BODIPY lipid droplet fluorescence, 18-24 h; for cell number change: measured here: cell count max response, cells fed with added oleic acid. Put shortly:
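Laser-scanning cytometry quantifies lipid droplet accumulation (500–530 nm total intensity; droplet/cell object ratio) in oleic acid-fed (400 uM added) Drosophila S3 cells treated with a concentration series. 20 uM Triacsin C defined 100% inhibition.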
(In general: Quantitative high-throughput screening tests each substance at several concentrations.)

Setting [1] is: measured here: lipid fluorescence (Fed channel) AC50, cells fed with added oleic acid.
[2] abbreviates: measured here: cell number channel AC50, cells fed with added oleic acid.

This is one part of the list. These are further read-outs of the screen, such as a control signal, another cell line or another target. No call is given for them. Compounds called inactive in the main read-out are mostly missing here. Words in brackets tell the shape of the fitted curve; partial curves, single points and poor fits give uncertain potencies.

Regarding `O=C(CSc1nnc(NCc2ccccc2)s1)c1ccco1`, the cell number change turned out to be 7.01%. As to `CCN1CCN(CC(=O)Nc2cc3c(cc2C(C)=O)OCO3)CC1`, the cell number change was -1.2%. For the same compound, the AC50 (commonly the concentration giving half of the maximal activity seen) under setting [1] was 3.26 µM [falling, single point]. For `COc1ccc(C)cc1NC(=O)c1cc(S(=O)(=O)N2CCCCC2)ccc1N1CCOCC1`, the cell number change worked out at 4.52%. Moreover, the AC50 under setting [1] is 29.1 µM [falling, single point]. Consider `COc1ccccc1-c1nc2c(c(SCC(=O)N3CCCCC3)n1)Cc1c(CO)cnc(C)c1O2`, for which the cell number change was -43.8%. In addition, under setting [2], the AC50 was 10.3 µM [falling, partial curve]. Take `O=C(COc1ccc(Cl)cc1Cl)Nc1ccc2nc3n(c(=O)c2c1)CCCC3`: the cell number change was -1.99%. In addition, under setting [1], the AC50 is 0.82 µM [falling, single point].

Consider `COc1cc(/C=N/NC(=O)CCN2CCN(Cc3ccccc3)CC2)cc(OC)c1OC`, for which the cell number change worked out at 41.6%. For the same compound, the concentration at half-maximal activity (AC50) under setting [2] is 8.2 µM [rising, partial curve]. For the compound `CCCN(C(=O)C1CSC2(C)CCC(=O)N12)c1c(N)n(Cc2ccccc2)c(=O)[nH]c1=O` (stereo not given), the cell number change was -77.4%. Further, the AC50 under setting [2] is 29.1 µM [falling, single point]. As to `CCNS(=O)(=O)c1ccc(CCC(=O)N2CCN(c3cc(Cl)ccc3C)CC2)cc1`, the cell number change was -40.2%. The AC50 under setting [2] is 11.6 µM [falling, partial curve, poor fit]. Besides, under setting [1], the half-maximal activity concentration (AC50) is 23.1 µM [falling, single point]. For `COc1ccc(CCNC(=O)C2CCN(S(=O)(=O)c3ccc(OC)c(OC)c3)CC2)cc1`, the cell number change came to 41.2%. The AC50 under setting [2] was 14.6 µM [rising, single point]. Under setting [1], the concentration at half-maximal activity (AC50) was 6.51 µM [rising, single point].

Consider `COc1ccc(/C=N/Nc2ccccn2)c(OC)c1OC`, for which the cell number change turned out to be 89.2%. Also, the AC50 under setting [1] was 29.1 µM [rising, single point]. With `COc1ccc(C)cc1NC(=O)C1CCCN(S(=O)(=O)c2cccnc2)C1` (stereo not given), the cell number change came out at 12.5%. Also, the AC50 under setting [1] was 10.3 µM [rising, partial curve]. Turning to `O=C(COc1nncc2ccccc12)Nc1ccc(Br)cc1F`, the cell number change was -22.9%. For `Cc1ccc(OCC(=O)Nc2ccc(C)c(S(=O)(=O)N3CCCCC3)c2)c([N+](=O)[O-])n1`, the cell number change was 9.35%. For the same compound, the AC50 under setting [1] is 0.00461 µM [rising, full curve, poor fit]. Consider `O=C(COc1ccccc1)N1CCN(C(=O)c2ccc([N+](=O)[O-])cc2)CC1`, for which, under setting [1], the AC50 is 29.1 µM [rising, partial curve, poor fit].

Turning to `CCOC(=O)c1ccc(Nc2c(OCC)c(=O)c2=O)cc1`, the AC50 under setting [1] is 3.66 µM [rising, single point]. On to `CCC(C)NC(=O)CSc1ccc(Cl)cc1` (stereo not given), for which the cell number change worked out at 21.4%. Further, the AC50 under setting [1] is 29.1 µM [rising, single point]. Consider `CCOCCNC(=O)c1ccc2c3c(cccc13)CC2`, for which the cell number change is -9.49%. For the compound `CN(C)Cc1nc2c([nH]1)c(=O)n(C)c(=O)n2C`, the cell number change is -27.1%. Also, under setting [2], the concentration at half-maximal activity (AC50) is 2.59 µM [falling, full curve, poor fit]. Further, the AC50 under setting [1] is 3.66 µM [falling, full curve].

`NS(=O)(=O)c1cccc(NC(=O)CC2(CC(=O)O)CCCC2)c1`: the cell number change was determined as 2.7%. For `CC1(C)Cc2cccc(C(=O)Nc3ccc(Cl)cc3)c2O1`, the cell number change is -12.3%. Moreover, the AC50 under setting [2] is 0.291 µM [falling, partial curve]. The AC50 under setting [1] was 6.51 µM [falling, single point]. Take `COc1ccc(-c2noc(N3CCC(C(=O)N4CCN(c5ccccn5)CC4)CC3)n2)cc1`: the cell number change was -30.4%. Further, under setting [2], the half-maximal activity concentration (AC50) is 13 µM [falling, partial curve]. Also, the concentration at half-maximal activity (AC50) under setting [1] is 20.6 µM [falling, partial curve, poor fit]. In the case of `O=C(c1cc([N+](=O)[O-])ccc1N1CCCCC1)N1CCCC1`, the cell number change stood at 9.11%. Regarding `CC1=Nc2ccccc2/C1=C\c1sc(Nc2ccc(C)cc2)nc1O`, the cell number change was -54.1%. Further, the AC50 under setting [2] was 29.1 µM [falling, single point]. Also, under setting [1], the AC50 was 1.84 µM [rising, partial curve, poor fit].

Regarding `CC(C)c1ccc(OCc2ccc(C(=O)NN3CCN(C)CC3)o2)cc1`, the cell number change is -35%. For the compound `Cc1cccc(NC(=O)c2ccc(N3C(=O)C4CCCCC4C3=O)cc2)c1C` (stereo not given), the cell number change came out at 26.9%. The AC50 under setting [1] was 29.1 µM [rising, single point]. As to `C=CCNC(=S)NCc1ccc(CNC(=S)NCC=C)cc1`, the cell number change is -5.97%. Under setting [1], the AC50 was 3.66 µM [falling, partial curve]. Regarding `COCCNC(=O)c1cnn2c(C(F)(F)F)cc(-c3ccc(C)cc3)nc12`, the cell number change is -1.34%. Also, the AC50 under setting [1] was 0.0058 µM [falling, full curve, poor fit].

As for `CCC(=O)n1nc(-c2cccnc2)nc1NCc1ccc(F)cc1`, the cell number change is -15.5%. For the compound `CC(C)(C)c1ccc(C(=O)NCC(=O)NNC(=O)c2ccccc2O)cc1`, the cell number change was -27.6%. The AC50 under setting [1] was 1.3 µM [falling, full curve]. `CC1(C)Cc2ccccc2-c2nnc(-c3ccc4ccccc4n3)n21`: under setting [1], the concentration at half-maximal activity (AC50) is 18.4 µM [falling, partial curve, poor fit]. As to `CC(C)(C)OC(=O)N1CCN(c2ccc([N+](=O)[O-])cc2)CC1`, the cell number change is -23%. For the same compound, the AC50 under setting [1] is 0.092 µM [rising, single point]. For `O=C(NNC(=O)c1ccccc1OCc1ccc(F)cc1)c1ccncc1`, the concentration at half-maximal activity (AC50) under setting [2] is 0.058 µM [rising, full curve, poor fit].

As for `CC(C)(C)OC(=O)N1CCC(Cc2cc(-c3cccc(Br)c3)no2)(C(=O)O)CC1`, the cell number change is 2.69%. Regarding `CCN(CC)CCCN(Cc1cc2cc3c(cc2[nH]c1=O)OCCO3)C(=O)Nc1ccc(F)cc1`, the cell number change is -33.7%. The AC50 under setting [2] is 0.82 µM [falling, full curve, poor fit]. As for `O=C(O)c1ccc2c(=O)n3c(nc2c1)/C(=C/c1ccc(OC(F)F)cc1OC(F)F)CC3`, the cell number change worked out at 12.8%. `O=C(NCc1cccnc1)Nc1ccc(Br)cc1`: the AC50 under setting [2] was 1.84 µM [falling, partial curve].

As to `CC1=CCC(C(=O)O)(C(=O)N/N=C/c2cccs2)C(c2ccc([N+](=O)[O-])cc2)C1` (stereo not given), the cell number change is 18.7%. As to `CC(C)CN(C(=O)COC(=O)CSc1ccccc1)c1c(N)n(Cc2ccccc2)c(=O)[nH]c1=O`, the AC50 under setting [1] is 16.4 µM [falling, single point]. In the case of `COc1ccc(N2CCN(S(=O)(=O)c3ccc4c(c3)CC(C)N4C(=O)C3CC3)CC2)cc1` (stereo not given), the cell number change came out at 17.9%. For the same compound, the concentration at half-maximal activity (AC50) under setting [1] is 6.51 µM [rising, single point]. As for `Cc1c(Cl)cccc1NC(=O)CNC(=O)C1CCN(C(=O)Nc2ccccc2)CC1`, the cell number change was -0.937%. Further, the AC50 under setting [1] is 0.00461 µM [rising, full curve, poor fit].
